Laboratory results taken from patent publication US9839640B2, “Methods of treating eye diseases associated with inflammation and vascular proliferation” (OccuRx Pty Ltd, priority 2010, dated 2017).

Key:
Assay type in all cases: in vivo, rat
[1] = Animal characteristics (8 weeks study), STZ diabetic (mRen-2) 27 rats treated with FT011; settings: FT011 200 mg/kg/day (100 mg/kg bid gavage)
Protocol: Ninety, six-week old female, heterozygous (mRen-2) 27 rats (St. Vincent's Hospital Animal House, Melbourne, Australia) were assigned to receive either 55 mg/kg of streptozotocin (STZ) (Sigma, St. Louis, USA) diluted in 0.1 M citrate buffer, pH 4.5 or citrate buffer alone (non-diabetic control) by tail vein injection following an overnight fast. In short term study, rats were randomly assigned to receive (n=10/group) treatment with either FT011 (100 mg/kg bid gavage) or vehicle for 8 weeks. Non-diabetic animals (n=10) served as controls. In the long term study, at 16 weeks of STZ diabetes rats were randomly assigned to either treatment (n=15/group) with, FT011 (50 mg/kg/day BID), FT011 (100 mg/kg BID) or no treatment for a further 16 weeks. Non-diabetic animals (n=15) served as controls. Each week, rats were weighed and their blood glucose levels were measured (Accu-check Advantage II Blood Glucose Monitor, Roche Diagnostics, USA) and only STZ-treated animals with blood glucose >15 mmol/L were considered diabetic. Every 4 weeks, SBP was determined in preheated conscious rats via tail-cuff plethysmography using a non-invasive blood pressure (NIBP) controller and Powerlab (AD instruments, NSW, Australia). Haemoglobin A1c (HbA1c) was measured by HPLC at the end of the study in the Department of Pathology, St Vincent's Hospital. […]

[2] = Animal characteristics (32 weeks study), STZ diabetic (mRen-2) 27 rats treated with FT011
Protocol: Ninety, six-week old female, heterozygous (mRen-2) 27 rats (St. Vincent's Hospital Animal House, Melbourne, Australia) were assigned to receive either 55 mg/kg of streptozotocin (STZ) (Sigma, St. Louis, USA) diluted in 0.1 M citrate buffer, pH 4.5 or citrate buffer alone (non-diabetic control) by tail vein injection following an overnight fast. In short term study, rats were randomly assigned to receive (n=10/group) treatment with either FT011 (100 mg/kg bid gavage) or vehicle for 8 weeks. Non-diabetic animals (n=10) served as controls. In the long term study, at 16 weeks of STZ diabetes rats were randomly assigned to either treatment (n=15/group) with, FT011 (50 mg/kg/day BID), FT011 (100 mg/kg BID) or no treatment for a further 16 weeks. Non-diabetic animals (n=15) served as controls. Each week, rats were weighed and their blood glucose levels were measured (Accu-check Advantage II Blood Glucose Monitor, Roche Diagnostics, USA) and only STZ-treated animals with blood glucose >15 mmol/L were considered diabetic. Every 4 weeks, SBP was determined in preheated conscious rats via tail-cuff plethysmography using a non-invasive blood pressure (NIBP) controller and Powerlab (AD instruments, NSW, Australia). Haemoglobin A1c (HbA1c) was measured by HPLC at the end of the study in the Department of Pathology, St Vincent's Hospital. Diabetic rats received a daily injection of insulin (2-4 units intraperitoneally; Humulin NPH, Eli Lilly and Co., Indianapolis, Ind.) to reduce mortality and to promote weight gain.

[3] = Animal characteristics, STZ diabetic (mRen-2) 27 rats treated with FT061; settings: FT061 100 mg/kg/day gavage, 8 weeks
Protocol: Sixty, six-week old female, heterozygous (mRen-2) 27 rats (St. Vincent's Hospital Animal House, Melbourne, Australia) were assigned to receive either 55 mg/kg of streptozotocin (STZ) (Sigma, St. Louis, USA) diluted in 0.1 M citrate buffer, pH 4.5 or citrate buffer alone (non-diabetic control) by tail vein injection following an overnight fast. Rats were randomly assigned to receive (n=15/group) treatment with either FT061 (100 mg/kg/day gavage) or vehicle for 8 weeks. Non-diabetic animals (n=15) served as controls. Each week, rats were weighed and their blood glucose levels were measured (Accu-check Advantage II Blood Glucose Monitor, Roche Diagnostics, USA) and only STZ-treated animals with blood glucose >15 mmol/L were considered diabetic. Every 4 weeks, SBP was determined in preheated conscious rats via tail-cuff plethysmography using a non-invasive blood pressure (NIBP) controller and Powerlab (AD instruments, NSW, Australia). Diabetic rats received a daily injection of insulin (2-4 units intraperitoneally; Humulin NPH, Eli Lilly and Co., Indianapolis, Ind.) to reduce mortality and to promote weight gain.

[4] = FT011 200 mk/kg/day, 32 weeks study

Structure (SMILES): C#CCOc1ccc(/C=C/C(=O)Nc2ccccc2C(=O)O)cc1OC [FT011]
- Body Weight ([1]; mean ± SEM): 278 ± 12 g
- SBP ([1]; tail-cuff): 190 ± 14 mmHg
- SBP ([2]; FT011 100 mk/kg/day, 32 weeks study): 176 ± 10 mmHg
- Body Weight ([2]; FT011 100 mk/kg/day, 32 weeks study (treated from week 16 for 16 weeks)): 322 ± 8 g
- Body Weight [2, 4]: 313 ± 9 g
- SBP [2, 4]: 170 ± 7 mmHg

Structure (SMILES): O=C(/C=C/c1ccc(OC(F)F)c(OC(F)F)c1)Nc1ccccc1C(=O)O [FT061]
- SBP [3]: 178 ± 4 mmHg
- Body Weight ([3]; P < 0.05 versus control): 282 ± 4 g
